Experimental data: PubChem BioAssay AID504808 (Drosophila RNAi Screening Center, 2011)

Assay: 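Chromatin factors that keep E2F targets switched off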 (primary screen)
Cell system: Drosophila S2 cells
Reagents: long dsRNA against Drosophila genes
Read-out: 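Firefly luciferase driven by E2F sites, normalised to Renilla luciferase on the same minimal promoter, measured by plate reader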
Scale: E2F firefly: higher = more E2F reporter activity; Renilla normaliser: higher = more normaliser reporter signal
Hit rule: 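a knock-down counted as active when the firefly/Renilla E2F signal rose above 50%, a threshold chosen arbitrarily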
The screen tested about 21,000 reagents; this is an unselected part of those with a known target gene and a result. In the full data, 18 (0.084%) got an active call. 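Raw counts without plate normalisation, one of two replicates; the ratio scores behind the calls were not deposited.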 A plus sign joins genes that one reagent is predicted to hit. Reagent sequences are not shown. The record does not give: the amount of reagent, the time to read-out.

The first 5 entries, to show the layout:
| target | amplicon | E2F firefly, rep 1 | Renilla normaliser, rep 1 | Call |
| --- | --- | --- | --- | --- |
| Aatf (Apoptosis antagonizing transcription factor) | DRSC02131 | 1.55e5 | 5684 | inactive |
| CG31792 | DRSC02604 | 1.04e5 | 4893 | inactive |
| CG42449 | DRSC18084 | 93255 | 6168 | inactive |
| CG14676 | DRSC12262 | 1.24e5 | 6660 | inactive |
| hng2 (hinge2) | DRSC16412 | 1.21e5 | 6946 | inactive |

Main list, from the first entry:
| target | amplicon | E2F firefly, rep 1 | Renilla normaliser, rep 1 | Call |
| --- | --- | --- | --- | --- |
| Aatf (Apoptosis antagonizing transcription factor) | DRSC02131 | 1.55e5 | 5684 | inactive |
| CG31792 | DRSC02604 | 1.04e5 | 4893 | inactive |
| CG42449 | DRSC18084 | 93255 | 6168 | inactive |
| CG14676 | DRSC12262 | 1.24e5 | 6660 | inactive |
| hng2 (hinge2) | DRSC16412 | 1.21e5 | 6946 | inactive |
| Efhc1.1 (EF-hand domain containing 1.1) | DRSC20135 | 1.52e5 | 5699 | inactive |
| CG33502 + CG32857 + CG32500 | DRSC20817 | 81459 | 2824 | inactive |
| CG33502 + CG32857 + CG32500 | DRSC21038 | 1.37e5 | 7171 | inactive |
| CG31211 | DRSC14953 | 81474 | 3467 | inactive |
| CG31211 | DRSC15344 | 1.59e5 | 6983 | inactive |
| Ant2 (Adenine nucleotide translocase 2) | DRSC19330 | 7572 | 716 | inactive |
| orb (oo18 RNA-binding protein) | DRSC17021 | 44815 | 3426 | inactive |
| CG5382 | DRSC15786 | 73601 | 2669 | inactive |
| Bacc (Bacchus) | DRSC00735 | 1.62e5 | 6237 | inactive |
| 14-3-3epsilon | DRSC16370 | 1.52e5 | 6612 | inactive |
| Rpn12 (Regulatory particle non-ATPase 12) | DRSC11275 | 86830 | 7898 | inactive |
| O-fut1 (O-fucosyltransferase 1) | DRSC06138 | 2599 | 220 | inactive |
| CG10877 | DRSC14274 | 1.51e5 | 7233 | inactive |
| nonA (no on or off transient A) | DRSC20357 | 2.34e5 | 9442 | inactive |
| CG2124 | DRSC18208 | 1.19e5 | 5015 | inactive |
| His2B:CG33894 + His2B:CG33872 + His2B:CG33902 + 20 more | DRSC21265 | 56426 | 5418 | inactive |
| TfIIA-L (Transcription factor IIA L) | DRSC16882 | 1375 | 880 | inactive |
| tapas | DRSC05950 | 80997 | 3926 | inactive |
| CG16734 | DRSC15143 | 1.28e5 | 5721 | inactive |
| CG5664 | DRSC11782 | 53706 | 3579 | inactive |
| CG31495 | DRSC16762 | 1.16e5 | 6246 | inactive |
| Galphao (G protein alpha subunit o) | DRSC07430 | 3289 | 209 | inactive |
| CG3104 | DRSC00567 | 1.60e5 | 5275 | inactive |
| CG34357 | DRSC12211 | 1.44e5 | 7443 | inactive |
| CG34357 | DRSC12238 | 1.15e5 | 5623 | inactive |
| CG34357 | DRSC12334 | 1.41e5 | 6984 | inactive |
| Spn (Spinophilin) | DRSC07986 | 1.38e5 | 4853 | inactive |
| Spn (Spinophilin) | DRSC08490 | 81702 | 3555 | inactive |
| Spn (Spinophilin) | DRSC08491 | 89656 | 4213 | inactive |
| Mur11Da (Mucin related 11Da) | DRSC18960 | 89296 | 2208 | inactive |
| Ankle2 | DRSC20105 | 1.80e5 | 5241 | inactive |
| Ankle2 | DRSC20106 | 1.57e5 | 7181 | inactive |
| CG14187 | DRSC10186 | 1.27e5 | 7309 | inactive |
| Arv1 (ACAT-related protein required for viability 1) | DRSC11491 | 87356 | 3858 | inactive |
| Utx (Utx histone demethylase) | DRSC02872 | 1.66e5 | 5043 | inactive |
| Snmp2 (Sensory neuron membrane protein 2) | DRSC10228 | 97963 | 3549 | inactive |
| Snmp2 (Sensory neuron membrane protein 2) | DRSC10843 | 93279 | 3949 | inactive |
| CG6254 | DRSC16002 | 71471 | 3352 | inactive |
| Scox (Synthesis of cytochrome c oxidase) | DRSC03117 | 1.27e5 | 4512 | inactive |
| CG11294 | DRSC17777 | 75613 | 5308 | inactive |
| bora (aurora borealis) | DRSC10744 | 69068 | 3144 | inactive |
| P32 | DRSC06988 | 74653 | 3598 | inactive |
| CG15873 | DRSC04277 | 1.04e5 | 4908 | inactive |
| mthl7 (methuselah-like 7) | DRSC10852 | 1.03e5 | 4038 | inactive |
| ND-SGDH (NADH dehydrogenase (ubiquinone) SGDH subunit) | DRSC11102 | 1.21e5 | 6471 | inactive |
| Srlp (Spliceosome-ribosome linker protein) | DRSC15890 | 98621 | 5589 | inactive |
| MED31 (Mediator complex subunit 31) | DRSC12142 | 72318 | 3422 | inactive |
| Ptp36E (Protein tyrosine phosphatase 36E) | DRSC03021 | 94296 | 4005 | inactive |
| CG8508 | DRSC16436 | 80146 | 3771 | inactive |
| Pebp1 (Phosphatidylethanolamine-binding protein 1) | DRSC15354 | 1.38e5 | 7172 | inactive |
| thr (three rows) | DRSC07706 | 69629 | 4360 | inactive |
| Mnat9 (microtubule-associated Nat9) | DRSC14325 | 50202 | 3290 | inactive |
| Gpo2 (Glycerophosphate oxidase 2) | DRSC06822 | 1.17e5 | 3931 | inactive |
| CG33181 | DRSC17971 | 1.26e5 | 6799 | inactive |
| Rpt6 (Regulatory particle triple-A ATPase 6) | DRSC20571 | 1.69e5 | 6046 | inactive |
| GV1 | DRSC08228 | 1.05e5 | 4712 | inactive |
| ND-B14.5AL (NADH dehydrogenase (ubiquinone) B14.5 A subunit-like) | DRSC11795 | 1.34e5 | 5771 | inactive |
| X11L | DRSC19958 | 1.82e5 | 5665 | inactive |
| X11L | DRSC19959 | 1.48e5 | 5782 | inactive |
| mspo (M-spondin) | DRSC07652 | 97634 | 4286 | inactive |
| Ttc26 (Tetratricopeptide repeat domain 26) | DRSC15591 | 48943 | 3942 | inactive |
| Cpsf5 (Cleavage and polyadenylation specific factor 5) | DRSC10374 | 68585 | 2716 | inactive |
| Drsl5 (Drosomycin-like 5) | DRSC08159 | 93486 | 4714 | inactive |
| spri (sprint) | DRSC17846 | 76942 | 5300 | inactive |
| spri (sprint) | DRSC17984 | 1.21e5 | 5555 | inactive |
| spri (sprint) | DRSC17985 | 1.30e5 | 5648 | inactive |
| spri (sprint) | DRSC17986 | 1.17e5 | 5559 | inactive |
| spri (sprint) | DRSC17988 | 1.19e5 | 5075 | inactive |
| spri (sprint) | DRSC17989 | 1.19e5 | 5971 | inactive |
| CG8314 | DRSC07144 | 75782 | 3234 | inactive |
| Sec13 (Secretory 13) | DRSC14144 | 65584 | 3042 | inactive |
| Atat (alpha-tubulin acetylase) | DRSC10392 | 76822 | 3650 | inactive |
| COX8 (Cytochrome c oxidase subunit 8) | DRSC11814 | 1.35e5 | 6445 | inactive |
| CG4364 | DRSC02742 | 81120 | 3739 | inactive |
| Ac76E (Adenylyl cyclase 76E) | DRSC09642 | 81070 | 3532 | inactive |
| Ac76E (Adenylyl cyclase 76E) | DRSC09662 | 84372 | 3920 | inactive |
| nonC (no-on-and-no-off transient C) | DRSC18366 | 6910 | 824 | inactive |
| nonC (no-on-and-no-off transient C) | DRSC18367 | 1.11e5 | 5399 | inactive |
| jb (jean-baptiste) | DRSC20531 | 1.40e5 | 7138 | inactive |
